The nature of the data set: general procedure: Fmoc solid-phase peptide synthesis; Fmoc-Linker-BHA resin; HBTU and DIC preferred; HOBT additive. Conditions: whole synthesis, scale 0.25 mmole.

Substance “Ac-Ile-Lys-Dqa-Arg-His-Tyr-Leu-Asn-Trp-Val-Thr-Arg-Gln-(NMe)Arg-Tyr-NH2” yielded an isolated mass of 22 mg and an isolated yield of 4%.
“Ac-Ile-Lys-Cip-Arg-His-Tyr-Leu-Asn-Trp-Val-Thr-Arg-Gln-(NMe)Arg-Tyr-NH2” had an isolated mass of 16 mg and an isolated yield of 3%.
Substance “Ac-Ile-Lys-HomPqa-Arg-His-Tyr-Leu-Asn-Trp-Val-Thr-Arg-Gln-(NMe)Arg-Tyr-NH2” had an isolated mass of 11 mg and an isolated yield of 2%.
Take “Ac-Ile-Lys-Cba-Arg-His-Tyr-Leu-Asn-Trp-Val-Thr-Arg-Gln-(NMe)Arg-Tyr-NH2”: the isolated mass is listed as 18 mg and the isolated yield was 3.2%.
“Ac-Ile-Lys-Pqa-Arg-His-Tyr-Leu-Asn-Trp-Val-Thr-Arg-Gln-(NMe)Arg-Tyr-NH2” displayed an isolated mass of 53 mg and an isolated yield of 9%.
In the same order, the values of “Ac-Ile-Lys-Pdp-Arg-His-Tyr-Leu-Asn-Trp-Val-Thr-Arg-Gln-(NMe)Arg-Tyr-NH2” are 17 mg and 3%.
With “Ac-Ile-Lys-Ppa-Arg-His-Tyr-Leu-Asn-Trp-Val-Thr-Arg-Gln-(NMe)Arg-Tyr-NH2”, the isolated mass came out at 117 mg and the isolated yield amounted to 21%.
The substance “Ac-Ile-Lys-Pipa-Arg-His-Tyr-Leu-Asn-Trp-Val-Thr-Arg-Gln-(NMe)Arg-Tyr-NH2” yielded an isolated mass of 118 mg and an isolated yield of 21%.
In the same order, the values of “Ac-Ile-Lys-Appa-Arg-His-Tyr-Leu-Asn-Trp-Val-Thr-Arg-Gln-(NMe)Arg-Tyr-NH2” are 98 mg and 17%.
For “Ac-Ile-Lys-Bqa-Arg-His-Tyr-Leu-Asn-Trp-Val-Thr-Arg-Gln-(NMe)Arg-Tyr-NH2” the same measures were 79 mg and 4%.

These data come from US8299023B2 (Hoffmann-La Roche Inc., priority 2008, dated 2012).
